Test results: publication PMC10445738
These are yes or no findings as the source states them, for the method shown. In cells and extracts the contact can be indirect. For some of these results: Binding can be weak; no strength is given.

By UniProt entry, the sequences of proteins in these tests, tags left out. Where a name states a change or a piece, a line headed by the entry shows the natural chain unless it says otherwise.
UniProt Q96BN8: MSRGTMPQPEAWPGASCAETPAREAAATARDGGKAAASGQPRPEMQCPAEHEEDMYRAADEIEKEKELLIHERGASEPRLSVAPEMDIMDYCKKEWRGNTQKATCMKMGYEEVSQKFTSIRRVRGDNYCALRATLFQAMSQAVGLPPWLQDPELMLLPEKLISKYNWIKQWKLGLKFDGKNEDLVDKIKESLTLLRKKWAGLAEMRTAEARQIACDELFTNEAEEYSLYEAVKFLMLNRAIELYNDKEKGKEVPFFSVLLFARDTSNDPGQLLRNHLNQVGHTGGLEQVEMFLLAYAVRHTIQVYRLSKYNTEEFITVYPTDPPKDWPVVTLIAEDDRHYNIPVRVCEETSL
UniProt Q60838: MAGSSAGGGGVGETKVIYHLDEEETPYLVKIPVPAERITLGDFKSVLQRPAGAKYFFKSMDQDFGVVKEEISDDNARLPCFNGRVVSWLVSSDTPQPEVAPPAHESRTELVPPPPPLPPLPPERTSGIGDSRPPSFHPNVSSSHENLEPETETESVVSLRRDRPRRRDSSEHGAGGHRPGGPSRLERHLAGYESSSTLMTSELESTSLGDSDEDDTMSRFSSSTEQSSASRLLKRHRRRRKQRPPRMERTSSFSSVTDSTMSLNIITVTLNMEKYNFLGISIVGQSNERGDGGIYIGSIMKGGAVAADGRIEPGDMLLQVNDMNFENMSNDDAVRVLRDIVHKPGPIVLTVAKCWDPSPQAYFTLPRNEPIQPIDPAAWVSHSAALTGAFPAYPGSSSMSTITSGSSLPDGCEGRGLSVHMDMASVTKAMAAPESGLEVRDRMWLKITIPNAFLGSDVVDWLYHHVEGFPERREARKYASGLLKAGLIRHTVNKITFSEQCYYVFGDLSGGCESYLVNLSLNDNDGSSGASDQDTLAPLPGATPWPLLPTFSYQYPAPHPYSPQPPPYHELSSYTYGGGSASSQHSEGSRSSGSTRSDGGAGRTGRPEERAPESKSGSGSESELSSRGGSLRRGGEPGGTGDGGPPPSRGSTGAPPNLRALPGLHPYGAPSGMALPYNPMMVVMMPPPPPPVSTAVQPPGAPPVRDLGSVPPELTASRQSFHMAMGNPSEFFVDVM
UniProt Q14160: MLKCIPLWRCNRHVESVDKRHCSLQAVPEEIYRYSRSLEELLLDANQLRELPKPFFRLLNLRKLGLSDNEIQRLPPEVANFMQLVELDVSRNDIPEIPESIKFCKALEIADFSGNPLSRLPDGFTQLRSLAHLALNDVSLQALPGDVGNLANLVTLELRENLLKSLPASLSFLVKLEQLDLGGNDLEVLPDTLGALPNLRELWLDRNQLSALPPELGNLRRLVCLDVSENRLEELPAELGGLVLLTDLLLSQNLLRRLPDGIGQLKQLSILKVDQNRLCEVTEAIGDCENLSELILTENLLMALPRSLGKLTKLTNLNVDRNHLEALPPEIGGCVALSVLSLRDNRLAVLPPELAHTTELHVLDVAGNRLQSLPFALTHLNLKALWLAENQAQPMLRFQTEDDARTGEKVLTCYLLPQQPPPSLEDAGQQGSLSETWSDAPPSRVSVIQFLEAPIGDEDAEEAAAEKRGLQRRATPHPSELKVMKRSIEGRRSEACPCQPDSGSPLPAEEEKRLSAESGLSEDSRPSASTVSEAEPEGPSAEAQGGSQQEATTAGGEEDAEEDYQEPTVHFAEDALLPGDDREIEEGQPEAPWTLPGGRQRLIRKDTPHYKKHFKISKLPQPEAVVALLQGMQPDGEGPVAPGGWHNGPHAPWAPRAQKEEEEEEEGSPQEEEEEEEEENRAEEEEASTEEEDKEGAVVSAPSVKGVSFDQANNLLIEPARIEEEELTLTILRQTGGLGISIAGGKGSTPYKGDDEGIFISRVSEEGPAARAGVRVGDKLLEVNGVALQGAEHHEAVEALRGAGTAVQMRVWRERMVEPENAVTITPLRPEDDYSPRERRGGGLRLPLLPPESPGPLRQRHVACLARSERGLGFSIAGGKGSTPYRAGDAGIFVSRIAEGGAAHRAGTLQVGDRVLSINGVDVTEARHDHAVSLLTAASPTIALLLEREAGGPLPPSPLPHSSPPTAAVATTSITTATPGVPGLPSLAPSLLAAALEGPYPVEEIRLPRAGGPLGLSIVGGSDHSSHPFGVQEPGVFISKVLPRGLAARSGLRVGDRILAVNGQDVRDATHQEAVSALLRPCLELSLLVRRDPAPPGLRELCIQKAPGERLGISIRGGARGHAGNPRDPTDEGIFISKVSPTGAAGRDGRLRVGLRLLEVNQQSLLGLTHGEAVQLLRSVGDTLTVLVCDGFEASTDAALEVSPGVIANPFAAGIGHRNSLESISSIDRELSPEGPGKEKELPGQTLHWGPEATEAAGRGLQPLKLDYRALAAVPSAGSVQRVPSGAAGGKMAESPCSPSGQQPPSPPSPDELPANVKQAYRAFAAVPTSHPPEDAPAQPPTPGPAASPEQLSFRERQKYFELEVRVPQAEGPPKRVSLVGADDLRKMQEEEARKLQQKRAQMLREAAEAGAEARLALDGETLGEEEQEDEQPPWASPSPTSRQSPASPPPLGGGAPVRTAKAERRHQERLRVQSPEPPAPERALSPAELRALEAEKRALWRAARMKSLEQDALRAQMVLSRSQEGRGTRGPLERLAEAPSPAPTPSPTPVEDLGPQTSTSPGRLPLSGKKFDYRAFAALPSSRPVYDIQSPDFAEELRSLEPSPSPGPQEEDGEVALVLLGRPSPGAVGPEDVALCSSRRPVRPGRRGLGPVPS

Experiments:
[1] = target: FLAG-OTULIN (transiently expressed) (UniProt Q96BN8); assay: co-IP; reciprocal co-immunoprecipitation of FLAG-OTULIN and Dvl2 constructs from transfected HEK293T cells; lysis buffer as in a3 with 4 μM MG132 added; immunoblot
HA-OTULIN^ΔPBM = HA-OTULIN^ΔPBM (UniProt Q96BN8); assay: co-IP; HA-OTULIN constructs and FLAG-SCRIB transiently co-expressed in HEK293T; lysis in 50 mM Tris pH 7.4, 100 mM EDTA, 150 mM NaCl, 0.5% Triton X-100; IP with anti-FLAG or anti-HA antibody and protein A/G agarose, washes with 500 mM NaCl; immunoblot

Substance	binding [1]	binding (HA-OTULIN^ΔPBM)
Dvl2 lacking the DEP domain (from UniProt Q60838)	binds	–
Dvl2 lacking the DIX domain (from UniProt Q60838)	binds	–
Dvl2 lacking the PDZ domain (from UniProt Q60838)	binds	–
FLAG-SCRIB (from UniProt Q14160 1-1655)	–	no binding
